Record: PubChem BioAssay AID1259425 (University of Nebraska Medical Center, 2018)

Aim: 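Compare each knockdown with KSR1 silencing using changes in marker transcripts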 (primary screen)
System: HCT116 human colon cancer cells
Reagent: siRNA pool against human genes, 50 nM siRNA
Measurement: 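After 50 nM siRNA pool, branched-DNA assay measures six marker transcripts per well, minus blank, normalised to the geometric mean of two housekeeping transcripts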
Direction: BNIP3L mRNA: higher = more BNIP3L transcript after knockdown; NDRG1 mRNA: higher = more NDRG1 transcript after knockdown; BNIP3 mRNA: higher = more BNIP3 transcript after knockdown; ALDOC mRNA: higher = more ALDOC transcript after knockdown; ACSL5 mRNA: higher = more ACSL5 transcript after knockdown
Shown is an unselected part of about 14,000 deposited reagents. Some reagents were tested in more than one well and are listed for each. Reagent sequences are not shown. Not stated in the record: the time to read-out.

| gene knocked down | BNIP3L mRNA, set 1 | NDRG1 mRNA, set 1 | BNIP3 mRNA, set 1 | ALDOC mRNA, set 1 | ACSL5 mRNA, set 1 |
| --- | --- | --- | --- | --- | --- |
| KHNYN | 0.204 | 0.407 | 0.437 | 0.137 | 0.149 |
| SLC39A14 | 0.0818 | 0.164 | 0.268 | 0.0142 | 0.175 |
| STAT3 | 0.187 | 0.37 | 0.618 | 0.0494 | 0.153 |
| COPS2 | 0.0715 | 0.205 | 0.312 | 0.0154 | 0.132 |
| INSRR | 0.0933 | 0.0467 | 0.282 | 0.0301 | 0.152 |
| EPB41L4B | 0.116 | 0.146 | 0.269 | 0.0274 | 0.105 |
| XRCC6 | 0.0958 | 0.182 | 0.216 | 0.0262 | 0.182 |
| PIK3C2A | 0.115 | 0.245 | 0.621 | 0.0163 | 0.522 |
| CTSH | 0.0462 | 0.196 | 0.287 | 0.0217 | 0.277 |
| BTG3 | 0.0459 | 0.0719 | 0.279 | 0.0082 | 0.119 |
| BST1 | 0.192 | 0.247 | 0.232 | 0.0269 | 0.267 |
| ANKRD13C-DT | 0.077 | 0.439 | 0.341 | 0.0259 | 0.257 |
| NXPH4 | 0.174 | 0.192 | 0.526 | 0.0551 | 0.235 |
| NT5DC2 | 0.216 | 0.399 | 0.236 | 0.0251 | 0.176 |
| ZNF134 | 0.0862 | 0.137 | 0.213 | 0.0555 | 0.143 |
| ARSA | 0.157 | 0.399 | 0.363 | 0.0387 | 0.142 |
| ACACA | 0.153 | 0.301 | 0.2 | 0.0869 | 0.222 |
| PSG5 | 0.0482 | 0.201 | 0.25 | 0.0252 | 0.0922 |
| ZC3H15 | 0.0621 | 0.153 | 0.295 | 0.0646 | 0.281 |
| KCTD9 | 0.111 | 0.168 | 0.304 | 0.0179 | 0.201 |
| CNTNAP4 | 0.143 | 0.0846 | 0.167 | 0.0317 | 0.233 |
| SLIT1 | 0.145 | 0.239 | 0.284 | 0.0169 | 0.166 |
| DCK | 0.0608 | 0.126 | 0.226 | 0.00564 | 0.194 |
| CACNG4 | 0.0956 | 0.126 | 0.315 | 0.0177 | 0.0875 |
| JPH4 | 0.0804 | 0.0603 | 0.177 | 0.0323 | 0.132 |
| KDM3A | 0.0677 | 0.353 | 0.331 | 0.0305 | 0.39 |
| SLC17A1 | 0.169 | 0.198 | 0.301 | 0.0652 | 0.106 |
| AVPI1 | 0.132 | 0.314 | 0.296 | 0.0484 | 0.304 |
| SGPP1 | 0.0918 | 0.0866 | 0.253 | 0.0244 | 0.157 |
| SP110 | 0.0648 | 0.145 | 0.245 | 0.0107 | 0.198 |
| BCAP29 | 0.107 | 0.279 | 0.263 | 0.0313 | 0.171 |
| MMUT | 0.149 | 0.302 | 0.267 | 0.0256 | 0.348 |
| RAB30 | 0.0998 | 0.146 | 0.296 | 0.0482 | 0.135 |
| PER2 | 0.0352 | 0.136 | 0.189 | 0.03 | 0.139 |
| CFAP92 | 0.117 | 0.0876 | 0.152 | 0.0255 | 0.347 |

Not a retest: entries from further up.
| gene knocked down | BNIP3L mRNA, set 1 | NDRG1 mRNA, set 1 | BNIP3 mRNA, set 1 | ALDOC mRNA, set 1 | ACSL5 mRNA, set 1 |
| --- | --- | --- | --- | --- | --- |
| NXPH4 | 0.174 | 0.192 | 0.526 | 0.0551 | 0.235 |
| NT5DC2 | 0.216 | 0.399 | 0.236 | 0.0251 | 0.176 |
| ZNF134 | 0.0862 | 0.137 | 0.213 | 0.0555 | 0.143 |
| ARSA | 0.157 | 0.399 | 0.363 | 0.0387 | 0.142 |
| ACACA | 0.153 | 0.301 | 0.2 | 0.0869 | 0.222 |
| PSG5 | 0.0482 | 0.201 | 0.25 | 0.0252 | 0.0922 |
| ZC3H15 | 0.0621 | 0.153 | 0.295 | 0.0646 | 0.281 |
| KCTD9 | 0.111 | 0.168 | 0.304 | 0.0179 | 0.201 |

Additional entries:
| gene knocked down | BNIP3L mRNA, set 1 | NDRG1 mRNA, set 1 | BNIP3 mRNA, set 1 | ALDOC mRNA, set 1 | ACSL5 mRNA, set 1 |
| --- | --- | --- | --- | --- | --- |
| CYP51A1 | 0.229 | 0.156 | 0.721 | 0.0884 | 0.406 |
| DBNL | 0.107 | 0.179 | 0.462 | 0.0148 | 0.129 |
| DBNL | 0.0721 | 0.168 | 0.308 | -0.000956 | 0.0755 |
| EPHB2 | 0.104 | 0.231 | 0.312 | 0.0168 | 0.315 |
| SMO | 0.218 | 0.433 | 0.723 | 0.0523 | 0.306 |
| SRR | 0.116 | 0.325 | 0.268 | 0.0271 | 0.271 |
| AKAP3 | 0.15 | 0.294 | 0.313 | 0.00791 | 0.301 |
| ARHGAP24 | 0.157 | 0.238 | 0.314 | 0.14 | 0.28 |
| HMGN2 | 0.125 | 0.217 | 0.358 | 0.0137 | 0.477 |
| S100A2 | 0.101 | 0.0291 | 0.306 | 0.0228 | 0.0914 |
| TOPBP1 | 0.111 | 0.134 | 0.269 | 0.0393 | 0.115 |
| TPTEP1 | 0.245 | 0.429 | 0.592 | 0.0519 | 0.0576 |
| CALR | 0.0216 | 0.292 | 0.284 | 0.00241 | 0.15 |
| PLS3 | 0.11 | 0.471 | 0.32 | 0.0276 | 0.182 |
| PAFAH1B1 | 0.298 | 0.157 | 0.786 | 0.0268 | 0.13 |
| POFUT3 | 0.138 | 0.385 | 0.378 | 0.0569 | 0.226 |
| LCORL | 0.0824 | 0.126 | 0.296 | 0.0108 | 0.157 |
| CHUK | 0.0842 | 0.478 | 0.426 | 0.0189 | 0.284 |
| AMELX | 0.132 | 0.0922 | 0.384 | 0.0189 | 0.121 |
| ILF2 | 0.0864 | 0.12 | 0.188 | 0.0328 | 0.267 |
| MYO9A | 0.0853 | 0.485 | 0.279 | 0.0445 | 0.331 |
| GUCA1A | 0.091 | 0.102 | 0.241 | 0.0219 | 0.0787 |
| ZNF205 | 0.0739 | 0.244 | 0.26 | 0.0311 | 0.102 |
| FANCM | 0.122 | 0.161 | 0.399 | 0.0329 | 0.11 |
| ABCB4 | 0.0429 | 0.0599 | 0.223 | 0.00474 | 0.207 |
| MTM1 | 0.0948 | 0.355 | 0.224 | 0.0371 | 0.274 |
| GPR87 | 0.0667 | 0.179 | 0.279 | 0.0177 | 0.204 |
| TSC1 | 0.0849 | 0.0791 | 0.36 | 0.032 | 0.0718 |
